In test [1] the target is T1, Rai14 (retinoic acid induced protein 14) (rat (endogenous in testis)) (UniProt Q5U312).
T1 sequence: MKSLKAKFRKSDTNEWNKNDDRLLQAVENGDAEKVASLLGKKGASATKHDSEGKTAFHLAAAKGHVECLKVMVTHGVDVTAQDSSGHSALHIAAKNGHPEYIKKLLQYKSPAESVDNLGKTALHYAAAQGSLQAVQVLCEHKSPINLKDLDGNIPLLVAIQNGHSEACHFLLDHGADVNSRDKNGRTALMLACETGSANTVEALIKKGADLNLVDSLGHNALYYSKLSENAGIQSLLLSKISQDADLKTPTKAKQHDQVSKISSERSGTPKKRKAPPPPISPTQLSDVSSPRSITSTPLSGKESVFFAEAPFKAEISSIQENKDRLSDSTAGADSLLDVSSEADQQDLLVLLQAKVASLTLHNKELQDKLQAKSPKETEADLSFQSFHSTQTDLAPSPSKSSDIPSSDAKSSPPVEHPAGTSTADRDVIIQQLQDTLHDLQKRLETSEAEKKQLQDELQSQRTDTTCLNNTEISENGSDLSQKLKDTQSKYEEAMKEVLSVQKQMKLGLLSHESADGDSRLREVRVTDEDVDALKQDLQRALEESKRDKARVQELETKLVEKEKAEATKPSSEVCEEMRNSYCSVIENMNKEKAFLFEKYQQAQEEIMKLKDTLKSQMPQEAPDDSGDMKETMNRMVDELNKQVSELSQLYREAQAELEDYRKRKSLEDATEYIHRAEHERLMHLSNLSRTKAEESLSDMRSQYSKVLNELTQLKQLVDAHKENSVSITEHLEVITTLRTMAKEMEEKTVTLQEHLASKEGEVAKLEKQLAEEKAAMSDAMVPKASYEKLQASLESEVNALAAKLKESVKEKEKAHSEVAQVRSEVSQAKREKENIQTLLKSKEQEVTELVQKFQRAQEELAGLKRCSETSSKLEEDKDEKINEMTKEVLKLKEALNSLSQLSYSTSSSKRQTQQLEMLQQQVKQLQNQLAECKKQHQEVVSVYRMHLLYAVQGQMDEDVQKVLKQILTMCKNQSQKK
The test can be described thus: co-IP; anti-Rai14 IgG (2 µg) as precipitating antibody, immunoblot for the partner; rat testis lysate (for Figure 1D the lysate is not named in the legend); untreated rats.

Sequences of proteins named here, by UniProt entry; tags and fusion partners are left off.
UniProt F1M3L7: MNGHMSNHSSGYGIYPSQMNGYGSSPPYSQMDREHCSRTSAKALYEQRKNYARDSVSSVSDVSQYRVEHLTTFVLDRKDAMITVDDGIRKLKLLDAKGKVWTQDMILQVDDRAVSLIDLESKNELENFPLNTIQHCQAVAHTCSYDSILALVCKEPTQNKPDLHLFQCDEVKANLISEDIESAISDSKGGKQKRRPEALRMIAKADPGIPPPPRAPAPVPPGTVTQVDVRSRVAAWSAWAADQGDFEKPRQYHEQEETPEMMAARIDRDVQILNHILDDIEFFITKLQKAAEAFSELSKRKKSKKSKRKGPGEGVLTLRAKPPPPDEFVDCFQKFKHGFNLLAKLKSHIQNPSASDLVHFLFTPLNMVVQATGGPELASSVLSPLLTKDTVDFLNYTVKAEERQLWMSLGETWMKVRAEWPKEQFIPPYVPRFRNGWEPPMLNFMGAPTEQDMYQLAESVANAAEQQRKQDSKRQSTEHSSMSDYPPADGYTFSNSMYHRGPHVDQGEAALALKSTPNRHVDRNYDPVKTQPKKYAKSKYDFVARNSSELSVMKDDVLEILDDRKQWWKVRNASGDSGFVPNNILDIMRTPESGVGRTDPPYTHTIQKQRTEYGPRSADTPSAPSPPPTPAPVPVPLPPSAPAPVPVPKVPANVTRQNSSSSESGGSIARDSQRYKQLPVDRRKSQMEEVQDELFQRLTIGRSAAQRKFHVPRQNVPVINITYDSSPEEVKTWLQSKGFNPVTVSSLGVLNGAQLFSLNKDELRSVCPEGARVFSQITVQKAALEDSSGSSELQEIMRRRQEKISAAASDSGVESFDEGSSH
UniProt P31000: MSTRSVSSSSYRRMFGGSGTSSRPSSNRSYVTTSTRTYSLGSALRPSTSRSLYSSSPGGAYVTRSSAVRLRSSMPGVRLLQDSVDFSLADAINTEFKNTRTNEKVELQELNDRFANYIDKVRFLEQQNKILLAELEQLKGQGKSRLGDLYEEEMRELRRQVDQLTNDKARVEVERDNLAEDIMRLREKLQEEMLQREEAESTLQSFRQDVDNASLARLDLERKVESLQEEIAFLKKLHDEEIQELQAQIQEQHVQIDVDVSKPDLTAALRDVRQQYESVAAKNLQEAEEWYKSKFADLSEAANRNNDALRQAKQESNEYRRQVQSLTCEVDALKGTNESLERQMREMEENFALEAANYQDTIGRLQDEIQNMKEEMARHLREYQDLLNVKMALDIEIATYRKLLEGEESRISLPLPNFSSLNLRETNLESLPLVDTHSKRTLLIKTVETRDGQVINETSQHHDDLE

The target of test [2] is T1, Rai14 (retinoic acid induced protein 14) (rat (endogenous in testis)). Described as above. The source holds these as a separate data set.

Read-outs that look alike come from different tables or passages of the source. Results are given in words; binding and its absence hold for the method and conditions named. Binding seen in cells or lysates may run through a third protein. Some results given as binding are weak or reduced against the parent protein; the word gives no strength.

As for “Eps8 (epidermal growth factor receptor pathway substrate 8) (from UniProt F1M3L7 1-822)”, the binding entry in test [1] is given as “no binding”.

As to vimentin (from UniProt P31000 1-466), the binding result in test [1] is reported as “no binding”.

B1: palladin (protein, UniProt P0C5E3 1-603)
chain: PEEICTLVIAESFPEDAGIFTCSARNDYGSVTSTAQLVVTSANTENCSYDSMGEPNSDHFQHFPPPPPILETGSYELASQKPSEIQQVNTPNLGFNMAALQMQFNSAERETNGVHPSHGVNGLINGKAYGNKSPPTPAALLSPTKEPPPLLAKPKLGFPKKASRTARIASDEEIQGTKDAVIQDLERKLRFKEDLLNNGQPRLTYEERMARRLLGADSANVFNIQEPEETAANQEYKVSSCEQRLISEIEYRLERSPVEESGDEVQEAEVPVENAAAPFFEMKLKHYKIFEGMPVTFTCRVAGSPKPKIYWFKDGKQISPKSDHYTIQRDVDGTCSLHTTASTLDDDGNYTIMAANTQGRVSCTGRLMVQAVNQRGRSPRSPPGHPHARRPRSRSRDSGDENEPIQERFFRPHFLQAPGDLTVQEGKLCRMDCKVSGLPTPDLSWQLDGKPIRPDSAHKMLVRENGVHSLIIEPVTSRDAGIYTCIATNRAGQNSFNLELVVAAKEAHKAPVFIEKLQNTGVADGYPVRLECRVSGVPPPQIFWKKENESLTHSTDRVSMHQDNHGYICLLIQGATKEDAGWYTVSAKNEAGIVSCTARLDVY
Consider B1, for which, in test [2], the binding entry was “binds”.

Values taken from paper PMC3614988.
